Laboratory results reported in PubChem BioAssay AID1794845 (National Center for Advancing Translational Sciences (NCATS), 2023).
Fewer than 10 of roughly 6,900 compounds were called active. The call rests on the fitted dose curve; in most records, active means well fitted curve in the direction sought with a large enough effect; inconclusive means small, poorly fitted or top-dose-only effect, or another doubt; inactive means no such curve, though single readings can be large or run the other way. Some of the results follow.

By UniProt entry, the sequences of proteins in these tests, tags left out. Where a name states a change or a piece, a line headed by the entry shows the natural chain unless it says otherwise.
UniProt C7C422: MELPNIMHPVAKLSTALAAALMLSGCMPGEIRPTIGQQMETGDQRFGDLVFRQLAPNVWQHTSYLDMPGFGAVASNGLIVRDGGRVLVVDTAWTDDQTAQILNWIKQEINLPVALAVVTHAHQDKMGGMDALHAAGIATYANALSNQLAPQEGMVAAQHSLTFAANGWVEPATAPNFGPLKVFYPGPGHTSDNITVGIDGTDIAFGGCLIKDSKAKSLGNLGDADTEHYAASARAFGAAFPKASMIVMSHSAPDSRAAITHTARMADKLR

biological target: Metallo-beta-lactamase type 2 (Klebsiella pneumoniae) (UniProt C7C422); test: qHTS to identify inhibitors of the New Delhi Metallo-beta-lactamase (NDM): primary screen against the NCATS Gemini Collection; settings: NDM-1 enzyme, meropenem hydrolysis, absorbance 300 nm; at 38.4 µM (top of the series) unless noted; further: % of control where 0% means no effect
In short: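 NDM-1 at 2 nM final in 50 mM HEPES pH 7.0, 1 uM ZnSO4, 0.01% Tween20, preincubated >30 min with compound. Meropenem 50 uM final added; absorbance at 300 nm after 30 min.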

Activity % (negative = inhibition), inactive:
CCC(C)(C)C(=O)N1CCC2(CC1)N(C)C(=O)CS2(=O)=O 1.27%
O=C1NC(=NC2CCCC2)C2(CCN(Cc3cccnc3)C2)N1c1cc(F)cc(F)c1 (stereo unspecified) -6.75%
O=C(Nc1ccccc1)N1CCCC(C(=O)N2CCC(N3CCCC3=O)CC2)C1 (stereo unspecified) -7.1%
O=C(C[C@H]1NC(=O)c2ccccc2NC1=O)Nc1nc(-c2ccncc2)cs1 33.3%
O=C1NC2(CCN(Cc3cccc4ccccc34)C2)OCc2ccccc21 (stereo unspecified) 0.632%
O=C(NCc1ccc(Cl)cc1)[C@@H]1Cc2nc[nH]c2CN1Cc1cc2ccccc2o1 5.28% [at 57.5 µM]
CC[C@H]1CN(C(=O)NC2CCCCC2)CC[C@H]1CC(=O)NCc1ccco1 -0.7% [at 57.5 µM]
CC1CCCN1c1ncnc2c1CN(c1ccccc1F)C(=O)CN2C (stereo unspecified) 0.372%
COCC(=O)N1CCC(Oc2ccccc2C(=O)N(C)Cc2ncccc2C)CC1 -1.43%
CC(=O)N1CCC(Cc2ccc(C(=O)N(C)Cc3cccnc3)cc2)CC1 -8.15%
O=C1CC2CCCC(C1)N2C(=O)c1ccncc1 5.12% [at 57.5 µM]
O=C(c1nc2ccccc2[nH]1)N1CCNc2cnc(Nc3ccc(-n4ccnc4)cc3)nc2C1 44.3%
CO[C@H]1C(=O)N(C(C)C)[C@H]1C1CCN(C(=O)C(C)C)CC1 7.65%
CNC(=O)[C@@H]1C[C@@H](O)CN1C1CCN(C(=O)C2(c3ccccc3)CC2)CC1 52%
N#Cc1ccc(S(=O)(=O)N2CCC(C3CCNC3)CC2)cc1 (stereo unspecified) -1.98%
Cc1ccc2[nH]c(CN3CCC(c4cccc(C#N)c4)CC3)cc(=O)c2c1 12.4%
COCCOC1CCN(C(=O)Nc2cccc(C)c2)CC1 0.132%
COCCn1nc2n(c1=O)CCC1(CC2)CCN(C(=O)CC(C)(C)C)CC1 8.77%
COc1ccc(CNC(=O)N2CCCCC2c2nc(-c3cnccn3)n[nH]2)cc1 (stereo unspecified) -5.76%
COc1ccc(C(C)NC(=O)c2c(C)sc3ccn(C)c(=O)c23)cc1 (stereo unspecified) 2.92%
O[C@@H]1C[C@@H](c2nnc3n2CCN(C2CCCCC2)C3)N(Cc2cccnc2)C1 -11%
COc1cccc(CCC(=O)N[C@@H]2CN(c3ncccn3)C[C@H]2CO)c1 -0.556%
COc1ccc(C(=O)N2CCCC(c3nc(-c4ccccc4)no3)CCNC(=O)CC2)cn1 (stereo unspecified) -20.6%
CN(C)c1ccc(C(=O)NC[C@H]2O[C@@H](CO)[C@@H](O)[C@H]2N(C)Cc2ccccc2)cc1 8.68%
COc1cccc(CNC(=O)c2c(C)noc2-c2ccccc2OC)c1 11.5%
CCOc1ccc(C2Cn3nnc(-c4nc(-c5ccccc5OC)no4)c3CO2)cc1 (stereo unspecified) 1.39%
CC(O)CN1CC2(CCC1=O)CCN(C(=O)c1ccnn1C)CC2 (stereo unspecified) 26.6%
Cc1ncsc1C(=O)N1CCCC(C)(Cc2ccc3c(c2)OCO3)C1 (stereo unspecified) 1.09%
CCc1c(C(=O)N2CCc3c(c(C(=O)O)nn3CC3CC3)C2)csc1C 29.2%
COc1ccc(CN2CCOc3nc(-c4cccc(C(F)(F)F)c4)ncc3C2=O)cc1 24.9% [at 57.5 µM]
CC1CCN(Cc2nnnn2CC(=O)N(C)Cc2ccccn2)CC1 -0.642%
COc1cccc(N2C(=O)NC(=NC3CCCCC3)C23CCCN(CC2CCCCC2)C3)c1 (stereo unspecified) -1.1%
COCC(=O)N1CCN(c2nc3ncccc3o2)CC1 44% [at 57.5 µM]
FC(F)(F)c1ccnc(N2CC[C@H](c3nnc(-c4ccncc4)o3)C2)n1 -0.667% [at 57.5 µM]
CSc1ccccc1C(=O)N1CCN(C(C)=O)CC(O)C1 (stereo unspecified) 6.41%
Cn1c(CN2CCN3C(=O)NC[C@H]3C2)nc2ccccc21 0.7% [at 77.1 µM]
CCC1Oc2ccc(NC(=O)c3ccccc3OC(C)=O)cc2CN(Cc2ccccc2F)C1=O (stereo unspecified) 14.7%
COc1ccnc(-c2nnc3ccc(Nc4cc(OC)c(OC)c(OC)c4)nn23)c1 12.4% [at 57.5 µM]
CNCCN1C(=O)CC[C@H]2CN(Cc3cc(C4CCCCC4)no3)CC[C@H]21 17.6%
Cc1[nH]nc2c1C(c1c(F)cccc1F)C(C#N)=C(N)O2 (stereo unspecified) -1.26%
O=C1CCN(C(=O)c2ccco2)CCCC(C(=O)NCc2ccccc2)CCN1 (stereo unspecified) -0.292%
CC(C)CNC(=O)C1CCCN(c2ccnc3ccnn23)C1 (stereo unspecified) 47.7% [at 57.5 µM]
O=C(c1ccccc1)N1CCC2(CC1)C(=O)NN=C2C1CC1 1.76% [at 57.5 µM]
CC(=O)N1CCCN(Cc2nnc(C(=O)N3CCC[C@@H]3C(c3ccccc3)c3ccccc3)n2-c2ccccc2)CC1 -0.156%
O=C(c1cc[n+]([O-])cc1)N1CCC2(CCCN(CCC3CCCCC3)C2)C1 (stereo unspecified) 6.2%
Cc1ccsc1CN1CCc2[nH]nc(C(=O)N(C)C)c2C1 4.25%
C[C@@H]1CN(C(=O)c2cc(S(N)(=O)=O)ccc2F)CC[C@]1(C)O 4.6%
CCNC(=O)N1CC(C(=O)NCc2cccc(C)c2)CC(c2ccc(F)c(C)c2)C1 (stereo unspecified) -1.97%
CC(C)C(=O)N1CCC(c2nc(-c3cccnn3)no2)CC1 0.573%
CN1CCCn2nc(C(=O)N(C)Cc3nc4ccc(Cl)cc4[nH]3)cc2C1 -2.64%
CS(=O)(=O)N1CCC2(CC1)CN(C(=O)c1ccc(N)nc1)Cc1ccccc1O2 16.7%
COCC1CN(Cc2c(C)n[nH]c2C)CC12CCNCC2 (stereo unspecified) -1.59%
CC(=O)N1CCC(NCc2cccnc2Oc2ccccc2C)CC1 -8.39%
CCc1nc(-c2c3n(c(=O)n(CC(=O)Nc4cccc(C)c4)c2=O)CCCCC3)no1 -1.67%
COCCOCC(=O)N1CCC(N2C(=O)CCC2C(=O)NCc2ccccc2)CC1 (stereo unspecified) 11.3%
CC(C)c1noc(-c2cn(C3CCN(C(=O)c4ccc5ccccc5n4)C3)nn2)n1 (stereo unspecified) 4.62%
CS(=O)(=O)NC[C@H]1Cn2ccnc2CO1 -0.563% [at 77.1 µM]
Cc1ccc(C2=NC3(CCN(C(=O)c4n[nH]c5c4CCCC5)CC3)ON2)cc1 58.1%
CCOC(=O)N1CCN(Cc2nccn2CCOC)CC1 -1.12%
O=C1NC2(CCN(CC3CCCCC3)CC2)COc2ccccc21 2.33% [at 57.5 µM]
CCCCc1ccc(CN2C[C@@H]3CC[C@H](C2)N(Cc2ccccn2)C3=O)s1 38.8%
CCC(CC)C(=O)NCc1cccnc1Oc1cccc(C(F)(F)F)c1 -3.8%
CCn1c(=O)c2ccnn2c2ccc(C(=O)O)cc21 4.34%
FC(F)(F)c1ccc(-c2noc([C@@H]3Cc4nc[nH]c4CN3Cc3cc4ccccc4o3)n2)cc1 38.7%
COc1ccc(-c2cc(C[C@H]3CNCC[C@H]3CC(=O)N3CCOCC3)no2)cc1 -1.43% [at 57.5 µM]
CCS(=O)(=O)Nc1ccc(C(=O)NCc2cc3n(n2)CCNC3)cc1 -1.65%
COc1cc(F)ccc1-c1cc(-c2ccc(=O)[nH]c2)c2cncn2c1 40.2% [at 57.5 µM]
Cc1nc(C2CC(O)C2)cc(N2CCN(c3cnn(C)c(=O)c3)CC2)n1 (stereo unspecified) 9.96%
O=C(c1c(OCC2CC2)cc(=O)n2c1CCOCC2)N1CCc2ccccc2C1 12%
CCCNC(=O)NCC1c2cc(OC)c(OC)cc2CCN1C(=O)NCC (stereo unspecified) 0.348%
COCC1CN(C)CC12CCN(Cc1sccc1C)CC2 (stereo unspecified) -2.49%
CN(C)[C@@H]1CO[C@H](CNC(=O)c2ccncc2)[C@H]1O -3.86% [at 77.1 µM]
CN(C)S(=O)(=O)N1CCCC(c2nc(-c3ccccc3)no2)CCNC(=O)CC1 (stereo unspecified) 1.56%
COC(=O)c1nc(NC(=O)Cn2nc3c(cc2=O)CCCC3)sc1C(C)C 17.5%
O=C(NC1CCOC2(CCOCC2)C1)c1ccc(-c2cnco2)cc1 (stereo unspecified) 19.1%
Cc1ccn(CC(=O)NCc2cccnc2Oc2ccccc2)n1 0.635%
CC1(C)[C@H]2CC[C@@H](CNC(=O)C3CC3)[C@@H]1C2 -2.25% [at 77.1 µM]
O=C(Cn1nc2n(c1=O)CCCC2)NCc1ccc(F)cc1 10.2%
O=C(Cn1nc2n(c1=O)CCCC2)NCCc1ccc(Cl)cc1 4.64%
Cc1cc(C(=O)N2CCOC(Cc3cccc(C(F)(F)F)c3)C2)nn1C (stereo unspecified) 2.33%
CC1=NOC2(CCN(C(=O)c3ccccc3)CC2)C1 0.0866% [at 57.5 µM]
O=C1CCC(CCC(=O)N2CCC(c3ccc(F)cc3)C2)(Cc2ccc3ccccc3c2)N1 (stereo unspecified) -2.29%
Cc1ccccc1CN1Cc2nc(-c3ccccc3)ccc2OCC1=O 2.8% [at 57.5 µM]
CN1CCN(c2nc3c(c(=O)[nH]2)CCN(Cc2cn[nH]c2-c2ccc(F)cc2)CC3)CC1 0.562%
CC(C)NC(=O)N1CC2ON=C(C(=O)N3CCOCC3)C2C1 (stereo unspecified) -4.63%
CC1(CNC(=O)c2n[nH]c3ccccc23)CCOCC1 -3.02%

3 records picked at random from the list so far, as already listed:
Activity % (negative = inhibition), inactive:
O=C(c1c(OCC2CC2)cc(=O)n2c1CCOCC2)N1CCc2ccccc2C1 12%
FC(F)(F)c1ccc(-c2noc([C@@H]3Cc4nc[nH]c4CN3Cc3cc4ccccc4o3)n2)cc1 38.7%
CC(C)C(=O)N1CCC(c2nc(-c3cccnn3)no2)CC1 0.573%

Compounds above containing a COOH group, in the order listed:
Activity % (negative = inhibition), inactive:
CCc1c(C(=O)N2CCc3c(c(C(=O)O)nn3CC3CC3)C2)csc1C 29.2%
CCn1c(=O)c2ccnn2c2ccc(C(=O)O)cc21 4.34%
